# Test results from the supplement of paper PMC10849652.
# Chains of the proteins cited; added tags and fusions are not shown. Lines headed by an entry give the natural chain unless they say otherwise; changes in a name come on top.
# UniProt O95298, whole entry, looked up: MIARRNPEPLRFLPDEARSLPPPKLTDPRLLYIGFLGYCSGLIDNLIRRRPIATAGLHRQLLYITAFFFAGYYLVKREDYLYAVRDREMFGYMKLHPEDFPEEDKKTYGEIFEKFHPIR
# UniProt O95182, whole entry, looked up: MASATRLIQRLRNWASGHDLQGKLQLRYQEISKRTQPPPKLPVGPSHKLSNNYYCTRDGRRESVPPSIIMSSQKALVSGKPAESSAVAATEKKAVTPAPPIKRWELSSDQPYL
# UniProt O95139, whole entry, looked up: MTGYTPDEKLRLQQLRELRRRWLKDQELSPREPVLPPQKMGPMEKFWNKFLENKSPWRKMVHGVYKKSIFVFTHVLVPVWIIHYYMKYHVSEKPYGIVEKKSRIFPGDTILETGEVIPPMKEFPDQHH
# UniProt P49821, whole entry, looked up: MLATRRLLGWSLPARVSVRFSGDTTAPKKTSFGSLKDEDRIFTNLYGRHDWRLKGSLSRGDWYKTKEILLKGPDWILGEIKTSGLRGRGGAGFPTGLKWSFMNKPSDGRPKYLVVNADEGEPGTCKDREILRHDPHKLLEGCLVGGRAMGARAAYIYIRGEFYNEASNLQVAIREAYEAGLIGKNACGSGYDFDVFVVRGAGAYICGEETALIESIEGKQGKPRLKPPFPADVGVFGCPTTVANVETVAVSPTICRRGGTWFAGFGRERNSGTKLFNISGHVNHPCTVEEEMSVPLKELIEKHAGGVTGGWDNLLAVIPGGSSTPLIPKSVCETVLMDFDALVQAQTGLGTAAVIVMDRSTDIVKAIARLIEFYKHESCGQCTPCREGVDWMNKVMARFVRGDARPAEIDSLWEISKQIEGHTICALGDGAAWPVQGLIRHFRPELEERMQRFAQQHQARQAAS
# UniProt P52848: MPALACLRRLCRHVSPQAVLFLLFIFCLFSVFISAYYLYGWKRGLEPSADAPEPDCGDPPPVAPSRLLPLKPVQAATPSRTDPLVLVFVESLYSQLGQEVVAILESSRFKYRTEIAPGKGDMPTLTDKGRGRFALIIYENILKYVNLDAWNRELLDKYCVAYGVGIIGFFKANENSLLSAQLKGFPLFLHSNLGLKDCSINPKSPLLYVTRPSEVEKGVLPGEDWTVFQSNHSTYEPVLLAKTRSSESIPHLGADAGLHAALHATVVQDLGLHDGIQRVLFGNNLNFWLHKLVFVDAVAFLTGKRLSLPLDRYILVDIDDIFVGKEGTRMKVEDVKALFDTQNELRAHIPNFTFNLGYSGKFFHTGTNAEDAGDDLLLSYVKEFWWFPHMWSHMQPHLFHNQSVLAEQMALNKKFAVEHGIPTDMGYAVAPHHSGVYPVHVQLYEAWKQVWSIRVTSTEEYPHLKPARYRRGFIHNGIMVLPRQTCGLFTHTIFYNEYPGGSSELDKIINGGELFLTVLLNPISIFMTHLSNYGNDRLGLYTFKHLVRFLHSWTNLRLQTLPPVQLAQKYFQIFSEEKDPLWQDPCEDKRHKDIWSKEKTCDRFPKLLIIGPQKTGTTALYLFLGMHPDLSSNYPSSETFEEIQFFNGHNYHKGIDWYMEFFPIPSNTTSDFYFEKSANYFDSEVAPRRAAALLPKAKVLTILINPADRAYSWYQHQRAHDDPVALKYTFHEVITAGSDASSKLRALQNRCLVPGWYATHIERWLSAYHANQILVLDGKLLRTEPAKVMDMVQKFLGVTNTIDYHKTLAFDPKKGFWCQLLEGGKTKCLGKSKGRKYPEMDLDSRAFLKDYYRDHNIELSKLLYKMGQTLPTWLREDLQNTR
# UniProt O43676, whole entry, looked up: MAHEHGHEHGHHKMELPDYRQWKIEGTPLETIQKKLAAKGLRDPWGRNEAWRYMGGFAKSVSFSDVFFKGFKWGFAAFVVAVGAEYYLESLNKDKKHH
# UniProt P25963: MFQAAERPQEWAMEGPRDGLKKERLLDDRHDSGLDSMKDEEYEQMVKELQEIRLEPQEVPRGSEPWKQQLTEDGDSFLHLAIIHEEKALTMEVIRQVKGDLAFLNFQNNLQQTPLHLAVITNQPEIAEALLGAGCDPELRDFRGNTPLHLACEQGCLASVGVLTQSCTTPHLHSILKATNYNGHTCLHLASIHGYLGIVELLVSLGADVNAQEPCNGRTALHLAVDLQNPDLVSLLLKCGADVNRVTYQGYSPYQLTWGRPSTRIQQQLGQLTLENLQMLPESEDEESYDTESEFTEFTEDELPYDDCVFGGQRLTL
# UniProt P08651, whole entry, looked up: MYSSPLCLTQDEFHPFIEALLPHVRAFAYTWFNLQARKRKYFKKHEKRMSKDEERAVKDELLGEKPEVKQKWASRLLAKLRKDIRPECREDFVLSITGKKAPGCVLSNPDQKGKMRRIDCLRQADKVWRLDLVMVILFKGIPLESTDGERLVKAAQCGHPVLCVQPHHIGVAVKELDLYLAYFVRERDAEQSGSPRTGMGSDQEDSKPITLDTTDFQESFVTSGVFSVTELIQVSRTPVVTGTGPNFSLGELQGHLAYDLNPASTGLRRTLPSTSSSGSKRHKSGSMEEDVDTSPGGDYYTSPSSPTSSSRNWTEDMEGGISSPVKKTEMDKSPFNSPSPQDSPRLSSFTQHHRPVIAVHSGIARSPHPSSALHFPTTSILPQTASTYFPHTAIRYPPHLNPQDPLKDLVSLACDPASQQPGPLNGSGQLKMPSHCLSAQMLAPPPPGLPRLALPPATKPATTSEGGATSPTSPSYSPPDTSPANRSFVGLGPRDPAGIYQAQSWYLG
# UniProt Q9NVZ3: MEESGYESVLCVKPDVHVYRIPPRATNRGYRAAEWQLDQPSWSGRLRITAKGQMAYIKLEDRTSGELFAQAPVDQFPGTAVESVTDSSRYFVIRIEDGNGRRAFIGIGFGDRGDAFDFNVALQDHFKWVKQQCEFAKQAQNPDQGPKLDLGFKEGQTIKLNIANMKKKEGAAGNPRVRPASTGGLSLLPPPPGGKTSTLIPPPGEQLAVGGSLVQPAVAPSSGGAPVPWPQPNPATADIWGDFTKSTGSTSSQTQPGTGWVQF
# UniProt O95299, whole entry, looked up: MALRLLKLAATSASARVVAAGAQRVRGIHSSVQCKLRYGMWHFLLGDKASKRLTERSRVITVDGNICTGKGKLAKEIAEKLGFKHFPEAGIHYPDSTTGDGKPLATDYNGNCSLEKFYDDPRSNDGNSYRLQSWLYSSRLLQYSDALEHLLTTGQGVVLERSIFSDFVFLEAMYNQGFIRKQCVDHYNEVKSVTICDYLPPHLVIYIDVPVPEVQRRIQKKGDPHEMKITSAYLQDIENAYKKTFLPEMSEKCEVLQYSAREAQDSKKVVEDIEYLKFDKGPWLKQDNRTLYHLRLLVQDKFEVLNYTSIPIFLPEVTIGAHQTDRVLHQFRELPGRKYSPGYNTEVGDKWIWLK
# UniProt Q6ZNB6: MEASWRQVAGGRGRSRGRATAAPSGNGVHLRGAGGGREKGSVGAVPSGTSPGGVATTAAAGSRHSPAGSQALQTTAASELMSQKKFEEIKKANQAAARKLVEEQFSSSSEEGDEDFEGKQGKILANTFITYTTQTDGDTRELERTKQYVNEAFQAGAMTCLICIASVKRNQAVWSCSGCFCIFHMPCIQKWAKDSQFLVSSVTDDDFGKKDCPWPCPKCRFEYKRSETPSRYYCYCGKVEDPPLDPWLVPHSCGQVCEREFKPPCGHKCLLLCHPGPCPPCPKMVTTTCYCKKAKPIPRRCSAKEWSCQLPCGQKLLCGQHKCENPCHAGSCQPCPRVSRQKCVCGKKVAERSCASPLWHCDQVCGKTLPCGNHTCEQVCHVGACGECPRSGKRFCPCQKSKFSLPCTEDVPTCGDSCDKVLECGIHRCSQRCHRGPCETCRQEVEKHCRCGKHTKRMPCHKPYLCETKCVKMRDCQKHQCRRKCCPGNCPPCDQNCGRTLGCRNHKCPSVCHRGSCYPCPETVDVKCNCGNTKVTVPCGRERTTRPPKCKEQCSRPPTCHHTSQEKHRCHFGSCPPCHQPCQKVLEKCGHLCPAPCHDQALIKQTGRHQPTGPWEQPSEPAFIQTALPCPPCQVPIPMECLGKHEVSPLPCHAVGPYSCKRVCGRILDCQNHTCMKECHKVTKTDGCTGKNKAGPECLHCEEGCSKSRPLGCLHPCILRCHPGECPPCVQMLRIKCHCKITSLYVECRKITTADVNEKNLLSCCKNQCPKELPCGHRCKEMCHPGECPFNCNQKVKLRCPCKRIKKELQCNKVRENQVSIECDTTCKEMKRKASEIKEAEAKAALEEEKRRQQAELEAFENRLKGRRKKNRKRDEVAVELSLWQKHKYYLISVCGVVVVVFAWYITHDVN
# UniProt P56181: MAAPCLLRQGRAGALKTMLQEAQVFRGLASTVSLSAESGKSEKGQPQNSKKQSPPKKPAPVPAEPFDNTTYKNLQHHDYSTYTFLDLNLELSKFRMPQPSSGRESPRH
# UniProt Q9Y2I1: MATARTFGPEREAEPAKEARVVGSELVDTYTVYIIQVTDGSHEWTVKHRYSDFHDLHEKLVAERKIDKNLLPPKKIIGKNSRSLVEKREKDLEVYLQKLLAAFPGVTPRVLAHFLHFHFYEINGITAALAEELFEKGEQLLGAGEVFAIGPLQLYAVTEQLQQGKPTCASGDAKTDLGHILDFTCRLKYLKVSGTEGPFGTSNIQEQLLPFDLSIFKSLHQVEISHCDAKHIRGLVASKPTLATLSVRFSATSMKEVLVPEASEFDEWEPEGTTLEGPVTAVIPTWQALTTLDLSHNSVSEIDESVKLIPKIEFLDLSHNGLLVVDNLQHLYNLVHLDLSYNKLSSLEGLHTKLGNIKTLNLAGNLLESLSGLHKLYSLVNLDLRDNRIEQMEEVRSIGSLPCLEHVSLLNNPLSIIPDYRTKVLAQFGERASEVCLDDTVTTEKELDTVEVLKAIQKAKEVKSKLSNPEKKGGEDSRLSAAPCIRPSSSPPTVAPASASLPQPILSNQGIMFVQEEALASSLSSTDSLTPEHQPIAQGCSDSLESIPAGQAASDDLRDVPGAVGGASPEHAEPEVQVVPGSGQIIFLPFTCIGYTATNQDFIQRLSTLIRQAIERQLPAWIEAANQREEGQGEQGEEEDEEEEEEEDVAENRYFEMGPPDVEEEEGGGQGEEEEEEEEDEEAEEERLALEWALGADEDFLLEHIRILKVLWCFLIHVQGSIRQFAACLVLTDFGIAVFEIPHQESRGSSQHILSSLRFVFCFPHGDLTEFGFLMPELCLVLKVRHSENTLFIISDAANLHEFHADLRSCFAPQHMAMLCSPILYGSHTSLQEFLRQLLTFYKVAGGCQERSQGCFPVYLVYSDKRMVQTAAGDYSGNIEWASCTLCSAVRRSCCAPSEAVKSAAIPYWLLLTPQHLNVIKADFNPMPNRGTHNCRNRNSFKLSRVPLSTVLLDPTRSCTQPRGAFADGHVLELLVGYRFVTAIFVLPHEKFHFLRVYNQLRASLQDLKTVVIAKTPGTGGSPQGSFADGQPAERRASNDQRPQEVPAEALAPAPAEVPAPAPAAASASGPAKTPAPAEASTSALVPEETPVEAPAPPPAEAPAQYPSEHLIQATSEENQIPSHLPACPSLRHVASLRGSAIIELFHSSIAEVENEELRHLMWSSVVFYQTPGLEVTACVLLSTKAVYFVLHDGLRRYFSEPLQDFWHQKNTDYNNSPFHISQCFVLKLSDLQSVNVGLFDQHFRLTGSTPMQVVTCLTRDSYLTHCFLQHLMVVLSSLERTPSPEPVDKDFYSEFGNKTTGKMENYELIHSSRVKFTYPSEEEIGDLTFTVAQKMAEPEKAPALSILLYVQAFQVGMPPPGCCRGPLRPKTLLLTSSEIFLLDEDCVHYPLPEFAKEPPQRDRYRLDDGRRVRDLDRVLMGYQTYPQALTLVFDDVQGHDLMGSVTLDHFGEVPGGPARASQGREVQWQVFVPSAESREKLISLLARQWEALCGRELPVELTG
# UniProt O14524: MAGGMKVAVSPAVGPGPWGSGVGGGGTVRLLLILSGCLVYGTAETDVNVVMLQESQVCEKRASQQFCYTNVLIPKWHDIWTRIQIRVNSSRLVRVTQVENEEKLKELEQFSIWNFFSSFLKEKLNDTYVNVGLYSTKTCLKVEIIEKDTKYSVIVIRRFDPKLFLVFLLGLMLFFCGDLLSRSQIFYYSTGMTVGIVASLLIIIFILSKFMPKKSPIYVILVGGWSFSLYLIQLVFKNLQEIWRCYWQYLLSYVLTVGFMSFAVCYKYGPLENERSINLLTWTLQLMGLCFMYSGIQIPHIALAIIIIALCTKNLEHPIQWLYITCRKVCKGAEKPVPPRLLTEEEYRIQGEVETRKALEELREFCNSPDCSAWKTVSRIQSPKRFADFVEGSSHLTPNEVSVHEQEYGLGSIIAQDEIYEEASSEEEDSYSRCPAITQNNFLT
# UniProt Q9GZM8: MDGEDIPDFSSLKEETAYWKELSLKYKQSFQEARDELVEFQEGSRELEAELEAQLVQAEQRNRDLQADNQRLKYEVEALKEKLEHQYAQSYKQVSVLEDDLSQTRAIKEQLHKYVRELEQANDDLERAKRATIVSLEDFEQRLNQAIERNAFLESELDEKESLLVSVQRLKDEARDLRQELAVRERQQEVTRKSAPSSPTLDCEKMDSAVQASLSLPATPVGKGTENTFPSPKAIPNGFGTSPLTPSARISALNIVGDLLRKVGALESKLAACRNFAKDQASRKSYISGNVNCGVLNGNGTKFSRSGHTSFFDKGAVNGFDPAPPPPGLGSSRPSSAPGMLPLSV
# This is one part of the list.
# Compound: C1=CC=C(C=C1)[C@H](COC2=CC3=C(C=C2)NC(=O)N3)NC(=O)C4=CC=CN(C4=O)CC5=CC(=C(C=C5)F)F
# Assay: log2 fold change, soluble protein after heating vs DMSO (PISA); higher = thermal stabilisation; K562 lysate, 10 uM; active = over 0.2 and 3.5 SD of the protein, either way, in both replicates (recomputed)
# How it was run: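 Pellets of K562 cells were dounce-homogenised in PBS pH 7.4 with 1 mM MgCl2, and the crude extract was held at 1 mg/mL protein for a 30 min treatment with 10 μM compound. Aliquots were heated for 3 min over 48°C-58°C and pooled before NP-40 was added to 0.5% at 4°C. The supernatant from 21,000xg for 90 min was quantified by TMTpro 16plex LC-MS/MS with channel sums equalised. Values are reported from duplicates as log-two fold change in thermal stability relative to solvent controls.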
row,Target,log2 fold change
1,NDRG2 (UniProt G3V2A6),inactive: -0.046
2,NDUFC2 (UniProt O95298),inactive: 0.04
3,NDUFA7 (UniProt O95182),inactive: 0.03
4,NDUFB6 (UniProt O95139),inactive: 0.034
5,NDUFV1 (UniProt P49821),inactive: 0.027
6,NDST1 (UniProt P52848),inactive: 0.077
7,NDUFB3 (UniProt O43676),inactive: 0.021
8,NDUFA8 (UniProt P51970),inactive: -0.023
9,NFKBIA (UniProt P25963),inactive: 0.086
10,NEBL (UniProt O76041),inactive: -0.074
11,NELFCD (UniProt Q8IXH7),inactive: -0.035
12,NEK3 (UniProt P51956),inactive: -0.015
13,NFIC (UniProt P08651),inactive: 0.023
14,NECAP2 (UniProt Q9NVZ3),inactive: 0.071
15,NLRC3 isoform 2 (UniProt Q7RTR2),inactive: -0.158
16,NDUFA10 (UniProt O95299),inactive: -0.066
17,NFXL1 (UniProt Q6ZNB6),inactive: 0.043
18,NDUFV3 (UniProt P56181),inactive: 0.043
19,NISCH (UniProt Q9Y2I1),inactive: -0.011
20,NEMP1 (UniProt O14524),inactive: 0.06
21,NLN (UniProt Q9BYT8),inactive: 0.003
22,NDEL1 isoform 2 (UniProt Q9GZM8),inactive: 0.043
23,NEDD1 isoform 3 (UniProt Q8NHV4),inactive: 0.02

# Given with bars between the fields: entries from further up.
row | Target | log2 fold change
16 | NDUFA10 (UniProt O95299) | inactive: -0.066
17 | NFXL1 (UniProt Q6ZNB6) | inactive: 0.043
